In test [1] the test system is Escherichia coli. Description: Estimated rate of [3H]DHS uptake in Escherichia coli K12 (ATCC 25868). Type of test: functional. Set-up: unit not given here. In a few lines: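 Cultures in tryptone-peptone broth at 37 °C with shaking, grown from OD600 ~0.05 to 0.20, then preexposed to antibiotic for 20 min at 37 °C. Cells pelleted, resuspended in equal volume fresh broth, pulsed 5.0 min at 37 °C with [3H]DHS (1.0 µCi/mL, 3.8 Ci/mmol). Samples filtered, washed with 0.1 M LiCl, scintillation counted. C50 = half-maximal rate estimated from dose-response curves.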

The test system of test [2] is Escherichia coli.

Drawing on ChEMBL document CHEMBL1123673, “Comparison of aminoglycoside antibiotics with respect to uptake and lethal activity in Escherichia coli” (J Med Chem, 1987), this text covers Uptake and C50 for 1 compound.
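For C50 in this document: escherichia coli cells, read-out is the rate of enhanced [3H]DHS uptake, C50 being the level that yields half of the maximal rate.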

With `CNC1C(O)C(OC2C(N)CC(N)C(OC3OC(CN)CCC3N)C2O)OCC1(C)O` (configuration not stated), in test [1], the Uptake at C50 was 4.7. In test [2], this compound yielded a C50 of 0.2 µM.
